Earlier results on two molecules are cited in paper PMC9289666, “Highly Parallelized, Multicolor Optogenetic Recordings of Cellular Activity for Therapeutic Discovery Applications in Ion Channels and Disease-Associated Excitable Cells” (Frontiers in Molecular Neuroscience, 2022).

A word on the IC50: it is the concentration that inhibits the measured activity by half.

The test system of the data set is Nav1.5. The conditions noted are these: read-out: Nav1.5 Ionworks (IC50); automated patch clamp, literature reported; ref Harmer et al., 2011; cited from earlier work.

Take `CN(C)CCOC(c1ccccc1)c1ccccc1` [Diphenhydramine]: the IC50 was 16.4 µM. Regarding `CCCNCC(O)COc1ccccc1C(=O)CCc1ccccc1` (centres unmarked) [Propafenone], the IC50 is 1.2 µM.
